From paper PMC12533970

Target: SmU2AF65 (Schistosoma mansoni) (UniProt C4Q2F6)
Experiment: EMSA
Details: Carubicin hydrochloride (CH) 10 uM, pre-incubated with protein; EMSA: 0.5 pmol FAM-RNA (heated 70 C 5 min, cooled on ice) with 1 ug WT or 2 ug mutant protein in 10 uL Beyotime reaction buffer (composition, salt and pH not stated); recombinant protein; residues 1-521; protein details: His+SUMO, cleaved with ULP1

## UACAUAAAUUAAUAAGUAUUUUUACUUUUUUUUAUUUUCAAUUUCAACAG [50-nt intron 3' region consensus RNA]
  binding result: binds more weakly

Construct, isoform or probe ends are uncertain for at least one entry. Weaker means in comparison with the reference protein, sequence or condition of that experiment.
